Whole data set: some 1,700 compounds, median “T2 sensor activation Q score (MG/GFP ratio z-score vs DMSO controls)” near 0.3, cut for the highest 2% near 1.9. Some of the results follow.

For the test, the system named is ppGalNAc-T2 sensor. As to the kind of experiment: T2 sensor activation Q score (MG/GFP ratio z-score vs DMSO controls) (SD units); higher = more sensor activation (inhibition of ppGalNAc-T2 glycosylation). Conditions: HEK293 sensor cells; 10 µM; 6 h. Here is the method:
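Cells were treated with compound at 10 uM for 6 h, then MG/GFP ratio was read by flow cytometry (10,000 cells per well, duplicate wells). Q = (R - R_neg)/SD_neg relative to DMSO vehicle controls; the signal rises when the glycosyltransferase is inhibited.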
For the compound `Nc1n[nH]c(=S)n1-c1ccc(Cl)cc1`, the “T2 sensor activation Q score” value amounted to 0.8.

As to `CCCCCc1cccnc1`, the “T2 sensor activation Q score” value was found to be 1.75.

Turning to `O=Cc1c[nH]c2ncccc12`, the “T2 sensor activation Q score” value turned out to be 1.2.

On to `C#CCSc1n[nH]c(-c2ccco2)n1`, for which the “T2 sensor activation Q score” value stood at 1.7.

Consider `c1ccc(CSc2nc3ncncc3[nH]2)cc1`, for which the “T2 sensor activation Q score” value came out at 1.1.

As for `Cc1cc2cc3c(=O)[nH]c(=O)cc-3n(CC(O)C(O)C(O)CO)c2cc1C` (centres undefined), the “T2 sensor activation Q score” value is 0.65.

For the compound `FC(F)(F)c1cccc(OCC2CNC(=S)O2)c1` (centres undefined), the “T2 sensor activation Q score” value worked out at 0.65.

As for `C1C2CC3C1C3/C2=N\N=C1/C2CC3C(C2)C13`, the “T2 sensor activation Q score” value came to 0.3.

Take `O=C(O)CCC(=O)OCCN(Cc1ccc(Oc2ccc([N+](=O)[O-])cc2)cc1)C(=O)C(Cl)Cl`: the “T2 sensor activation Q score” value came to 0.3.

Turning to `N#Cc1[nH]nc2nc[nH]c(=O)c12`, the “T2 sensor activation Q score” value was -2.4.

As to `c1ccc2c(c1)Oc1cccc3cccc-2c13`, the “T2 sensor activation Q score” value came to 1.3.

Regarding `CN(CC(=O)O)Cc1oc(CO)cc(=O)c1O`, the “T2 sensor activation Q score” value is -0.15.

As to `Cc1cc(-c2ccc(N3C(=O)CC4(CCCC4)C3=O)c(C)c2)ccc1N1C(=O)CC2(CCCC2)C1=O`, the “T2 sensor activation Q score” value turned out to be 0.55.

On to `CCCCn1ccnc1C`, for which the “T2 sensor activation Q score” value came out at 1.65.

Consider `O=[N+]([O-])c1cccnc1Oc1cccnc1`, for which the “T2 sensor activation Q score” value is -0.5.

With `CCOc1ccc(Nc2c3ccccc3nc3ccccc23)cc1`, the “T2 sensor activation Q score” value is -2.1.

In the case of `CC1=C(/C=C/C(C)=C/C=C/C(C)=C/C(=O)O)C(C)(C)CCC1`, the “T2 sensor activation Q score” value is -0.45.

Turning to `COc1ccc(/C(C#N)=C/c2ccccn2)cc1`, the “T2 sensor activation Q score” value is -0.3.

`Cc1cc2nc(CS)[nH]c2cc1C`: the “T2 sensor activation Q score” value worked out at 0.1.

Regarding `c1ccc(Sc2ncccn2)nc1`, the “T2 sensor activation Q score” value is 1.25.

In the case of `COc1ccc(C2C3=C(COC3=O)Oc3cc4c(cc32)OCO4)cc1OC` (centres undefined), the “T2 sensor activation Q score” value is 1.15.

Consider `CCCCN1C(=O)CC2CCOC21C` (centres undefined), for which the “T2 sensor activation Q score” value was -0.45.

Consider `Nc1ccc(S(=O)(=O)NCC2CCCCO2)cc1` (centres undefined), for which the “T2 sensor activation Q score” value was 0.

With `Cc1ccc(Nc2c(O)nc[nH]c2=O)cc1C`, the “T2 sensor activation Q score” value was -0.15.

Consider `COc1ccc2c(c1)c1ccc3c(c1n2C)C(=O)C=CC3=O`, for which the “T2 sensor activation Q score” value is -0.6.

Turning to `CCOC(=O)Nc1ccc(C(=O)/C=C/c2ccccc2)cc1`, the “T2 sensor activation Q score” value stood at 0.6.

Consider `O=C(CCl)NC1(C(=O)O)CCCC1`, for which the “T2 sensor activation Q score” value was -0.45.

Regarding `C#Cc1cccc(NC(=O)c2ccc(Cl)cc2Cl)c1`, the “T2 sensor activation Q score” value stood at 0.95.

On to `O=C(C(=O)c1cccnc1)c1cccnc1`, for which the “T2 sensor activation Q score” value stood at 1.55.

Turning to `O=[N+]([O-])c1cc(-c2cccnc2)n[nH]1`, the “T2 sensor activation Q score” value is -0.35.

Turning to `Nc1ccn([C@@H]2O[C@H](CO)[C@@H](O)C2(F)F)c(=O)n1`, the “T2 sensor activation Q score” value was -0.85.

For `CO[C@H]1C[C@@H]2CC[C@@H](C)[C@@](O)(O2)C(=O)C(=O)N2CCCC[C@H]2C(=O)O[C@H]([C@H](C)C[C@@H]2CC[C@@H](OCCO)[C@H](OC)C2)CC(=O)[C@H](C)/C=C(\C)[C@@H](O)[C@@H](OC)C(=O)[C@H](C)C[C@H](C)/C=C/C=C/C=C/1C`, the “T2 sensor activation Q score” value is -2.8.

Take `N#CCCCCN1CCCC1`: the “T2 sensor activation Q score” value was -0.65.

As for `CC(=O)O[C@@]12CO[C@@H]1C[C@H](O)[C@@]1(C)C(=O)[C@H](O)C3=C(C)[C@@H](OC(=O)[C@H](O)[C@@H](NC(=O)OC(C)(C)C)c4ccccc4)C[C@@](O)([C@@H](OC(=O)c4ccccc4)[C@H]21)C3(C)C`, the “T2 sensor activation Q score” value is -0.4.

The record behind these values is the supplement of paper PMC5407854, “Inhibitor of ppGalNAc-T3-mediated O-glycosylation blocks cancer cell invasiveness and lowers FGF23 levels” (eLife, 2017).
